Measured values taken from the supplement of paper PMC10331698.
± gives the standard deviation of the averaged measurements. Small differences around the control level are noise.

What was measured:
Test in all cases: level (log10 ratio to DMSO vehicle control); higher = higher biomarker level / cell amount than vehicle control
[1] = compound: FC(F)(F)COC(OCC(F)(F)F)OCC(F)(F)F [tris(Trifluoroethoxy)methane] (in DMSO); conditions: 2200 nM
Method: (§1)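 BioMAP Diversity Plus panel of 12 human primary cell co-culture systems (3C, 4H, LPS, SAg, BT, BF4T, BE3C, CASM3C, HDF3CGF, KF3CT, MyoF, Mphg). Compounds were added 1 h before stimulation and left for 24 h (MyoF 48 h; BT 72 h for soluble read-outs or 6 d for IgG). Biomarkers were read by ELISA, cytotoxicity by SRB, PBMC viability and proliferation by Alamar Blue. Each well value was divided by the mean of 8 DMSO control wells on the same plate and log10 transformed; duplicate blinded samples were tested at 4 concentrations.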

[2] = compound: O=S(=O)(O)C(F)(F)C(F)(F)C(F)(F)C(F)(F)F [Perfluorobutanesulfonic acid] (in DMSO)
Method: as §1

[3] = compound: OCC(F)(F)C(F)(F)C(F)(F)C(F)(F)C(F)(F)C(F)(F)CO [1H,1H,8H,8H-Perfluorooctane-1,8-diol] (in DMSO); conditions: 2200 nM
Method: as §1

[4] = compound: OCCCC(F)(F)C(F)(F)C(F)(F)C(F)(F)C(F)(F)C(F)(F)C(F)(F)C(F)(F)F [3-(Perfluorooctyl)propanol] (in DMSO); conditions: 2200 nM
Method: as §1

[5] = compound: OCC(F)(F)OC(F)(F)C(F)(F)OC(F)(F)CO [1H,1H,8H,8H-Perfluoro-3,6-dioxaoctane-1,8-diol] (in DMSO); conditions: 2200 nM
Method: as §1

Hexafluoroglutaric acid = compound: O=C(O)C(F)(F)C(F)(F)C(F)(F)C(=O)O [Hexafluoroglutaric acid] (in DMSO)
Method: as §1

[6] = compound: FC(F)(F)C(F)(F)CNCC(F)(F)C(F)(F)F [Bis(1H,1H-perfluoropropyl)amine] (in DMSO); conditions: 2200 nM
Method: as §1

[7] = compound: OCC(F)(F)C(F)(F)C(F)(F)C(F)F [1H,1H,5H-Perfluoropentanol] (in DMSO); conditions: 2200 nM
Method: as §1

[8] = compound: OCC(F)(F)C(F)(F)C(F)(F)C(F)(F)C(F)(F)C(F)(F)F [6:1 Fluorotelomer alcohol] (in DMSO); conditions: 2200 nM
Method: as §1

Perfluorohexanoic acid = compound: O=C(O)C(F)(F)C(F)(F)C(F)(F)C(F)(F)C(F)(F)F [Perfluorohexanoic acid] (in DMSO)
Method: as §1

[9] = compound: O=C(O)C(F)(OC(F)(F)C(F)(OC(F)(F)C(F)(OC(F)(F)C(F)(F)C(F)(F)F)C(F)(F)F)C(F)(F)F)C(F)(F)F [Perfluoro-(2,5,8-trimethyl-3,6,9-trioxadodecanoic)acid] (in DMSO); conditions: 370 nM
Method: as §1

[10] = compound: O=C(O)C(F)(F)C(F)(F)C(F)(F)OC(F)(C(F)(F)F)C(F)(F)F [Perfluoro-4-isopropoxybutanoic acid] (in DMSO); conditions: 2200 nM
Method: as §1

[11] = compound: FC(F)(F)C(F)(F)C(F)(F)C(F)(F)CCI [1H,1H,2H,2H-Perfluorohexyl iodide] (in DMSO); conditions: 2200 nM
Method: as §1

[12] = compound: C=C(C)C(=O)OCCC(F)(F)C(F)(F)C(F)(F)C(F)(F)C(F)(F)C(F)(F)F [6:2 Fluorotelomer methacrylate] (in DMSO); conditions: 2200 nM
Method: as §1

[13] = compound: CNS(=O)(=O)C(F)(F)C(F)(F)C(F)(F)C(F)(F)C(F)(F)C(F)(F)C(F)(F)C(F)(F)F [N-Methylperfluorooctanesulfonamide] (in DMSO); conditions: 2200 nM
Method: as §1

[14] = compound: O=C(O)CCC(F)(F)C(F)(F)C(F)(F)F [3:3 Fluorotelomer carboxylic acid] (in DMSO); conditions: 2200 nM
Method: as §1

[15] = compound: O=C(O)C(F)(OC(F)(F)C(F)(F)C(F)(F)F)C(F)(F)F [Ammonium perfluoro-2-methyl-3-oxahexanoate] (in Water)
Method: as §1

| Test System | level (log10) [1] | level (log10) ([2]; 2200 nM) | level (log10) ([2]; 6700 nM) | level (log10) ([2]; 20000 nM) | level (log10) ([2]; 60000 nM) | level (log10) [3] | level (log10) [4] | level (log10) [5] | level (log10) (Hexafluoroglutaric acid; 2200 nM) | level (log10) (Hexafluoroglutaric acid; 6700 nM) | level (log10) (Hexafluoroglutaric acid; 20000 nM) | level (log10) (Hexafluoroglutaric acid; 60000 nM) | level (log10) [6] | level (log10) [7] | level (log10) [8] | level (log10) (Perfluorohexanoic acid; 2200 nM) | level (log10) (Perfluorohexanoic acid; 6700 nM) | level (log10) (Perfluorohexanoic acid; 20000 nM) | level (log10) (Perfluorohexanoic acid; 60000 nM) | level (log10) [9] | level (log10) [10] | level (log10) [11] | level (log10) [12] | level (log10) [13] | level (log10) [14] | level (log10) ([15]; 2200 nM) | level (log10) ([15]; 6700 nM) | level (log10) ([15]; 20000 nM) | level (log10) ([15]; 60000 nM) |
| --- | --- | --- | --- | --- | --- | --- | --- | --- | --- | --- | --- | --- | --- | --- | --- | --- | --- | --- | --- | --- | --- | --- | --- | --- | --- | --- | --- | --- | --- |
| 4H:CD87/uPAR | 0.0375 ± 0.044 | 0.038 ± 0.09 | 0.0115 ± 0.052 | 0.0235 ± 0.022 | 0.025 ± 0.021 | -0.004 ± 0.021 | -0.032 ± 0.013 | 0.001 ± 0.0042 | -0.0185 ± 0.016 | -0.046 ± 0.023 | -0.027 ± 0.057 | -0.005 ± 0.031 | -0.0545 ± 0.011 | 0.0225 ± 0.021 | 0.009 ± 0.03 | 0.0075 ± 0.011 | 0.0025 ± 0.042 | -0.002 ± 0.011 | 0.0205 ± 0.039 | 0.0105 ± 0.066 | -0.004 ± 0.014 | 0.017 ± 0.024 | -0.003 ± 0.073 | 0.081 ± 0.051 | -0.025 ± 0.011 | -0.01 ± 0.016 | -0.033 ± 0.027 | -0.024 ± 0.033 | -0.06 ± 0.0014 |
| 4H:CD106/VCAM-1 | -0.01 ± 0.0071 | 0 ± 0.0071 | -0.024 ± 0.016 | -0.029 ± 0.028 | 0.001 ± 0.033 | 0.007 ± 0.0085 | 0.0175 ± 0.0064 | 0.002 ± 0.051 | 0.0045 ± 0.021 | -0.005 ± 0.014 | -0.005 ± 0.03 | -0.0045 ± 0.012 | 0.014 ± 0.0099 | 0.0145 ± 0.012 | 0.013 ± 0.051 | 0.053 ± 0.044 | -0.006 ± 0.028 | 0.0095 ± 0.00071 | 0.041 ± 0.045 | 0.0485 ± 0.044 | 0.0055 ± 0.0064 | -0.0025 ± 0.0035 | -0.002 ± 0.0099 | 0.028 ± 0.0099 | 0.0065 ± 0.044 | -0.0365 ± 0.0035 | -0.0455 ± 0.005 | -0.0365 ± 0.018 | -0.037 ± 0.021 |
| 4H:SRB | -0.0025 ± 0.005 | 0.004 ± 0.0085 | 0.0005 ± 0.0064 | 0.002 ± 0.0028 | 0 ± 0.0099 | 0.016 ± 0.014 | 0.006 ± 0.0085 | -0.006 ± 0.033 | -0.0075 ± 0.013 | -0.0005 ± 0.0092 | 0.003 ± 0.016 | 0.011 ± 0.034 | 0.0055 ± 0.011 | 0.0055 ± 0.011 | 0.019 ± 0.031 | 0.0005 ± 0.005 | -0.002 ± 0.0057 | -0.0105 ± 0.00071 | 0.0045 ± 0.015 | 0.0105 ± 0.019 | -0.0215 ± 0.0035 | -0.01 ± 0.0071 | 0.0005 ± 0.016 | 0.004 ± 0.011 | -0.013 ± 0.016 | -0.008 ± 0.016 | -0.0075 ± 0.012 | -0.018 ± 0.014 | -0.0115 ± 0.005 |
